One assay concerns the target CDK2/Cyclin E1 (Homo sapiens, UniProt P24941). Briefly: ADP-Glo Luminescent Kinase Assay (CDK2/E1-37C). The note with it: read-out: ADPGLO (CDK2/E1-37C): IC50; 0.18 nM CDK2/Cyclin E1, 100 μM ATP, Histone H1, 37° C. Here is the method: Inhibition of CDK2/Cyclin E1 activity by the presence of small molecules was evaluated using ADP-Glo Luminescent Kinase Assay (Promega). Activated CDK2/Cyclin E1 was incubated with its substrate Histone H1 (SignalChem H10-54N) in the kinase reaction buffer (100 μM ATP, 50 mM HEPES pH 7.5, 10 mM MgCl2, 1 mM EDTA, 2 mM DTT, 0.01% Brij35, 0.5 mg/mL BSA). Luminescence was recorded with an Envision plate reader (PerkinElmer).
Dose titrations of inhibitors in 100% DMSO were combined with 0.36 nM CDK2/Cyclin E1 in reaction buffer. The mixtures were incubated for 60 minutes at 37° C. before the addition of ATP and Histone H1 substrate to initiate the kinase reaction. The final conditions were 0.18 nM CDK2/Cyclin E1, 100 μM ATP, and […] Histone H1. The reactions were incubated at 37° C. for 90 minutes before being stopped with the addition of ADP-Glo reagent. This mixture was incubated at room temperature for 60 minutes before Kinase Detection Solution is added to generate luminescence. The stopped reactions were analyzed on an Envision plate reader. The conversion ratios were normalized to yield % activity, plotted against compound concentration, and fit to a four-parameter equation to determine the IC50 for each compound.
Background: ADP-Glo first removes unused ATP, then detects ADP through luciferase.

For a further assay, the system named is Kuramochi cells RB-WT. Put plainly: IncuCyte Kuramochi cell proliferation assay, RB-WT. The note with it: read-out: IncuCyte - Kuramochi RB-WT: IC50, 72 hours, cell count. Here is the method:
(§1) IncuCyte® assay was used to measure the effect of disclosed compounds on cell proliferation. Fluorescent microscopy images of cells were taken immediately after compound treatment and 72 hours later. Image analysis software was used to obtain cell counts as a function of compound concentration. Kuramochi cells labeled with mApple-H2B were seeded on 384-well assay-ready plates. Plates were placed in an IncuCyte® (Sartorius) and scanned at 0 and 72 hours. IncuCyte® software was used to count the number of fluorescent nuclei in each well. The fold change in cell count from 0 to 72 hours in wells treated with increasing compounds concentrations (10 pts, 1/2 log dilution, 20 µM top concentration) was normalized to DMSO control wells. The normalized cell counts were fit with dose response curves and a GI50 was calculated.

The next assay deals with Kuramochi cells RB-KO. Briefly: IncuCyte Kuramochi cell proliferation assay, RB-KO. The following applies: read-out: IncuCyte Kuramochi RB-KO: IC50 - Batch Mean, 72 hours, cell count. The protocol:
as §1

Structures are written as SMILES. The match of structure and compound is tentative.

Consider `CC1(C)C[C@@H]1C(=O)N1CC2(CN(C(=O)c3cnn(Cc4ccc(F)cc4OC(F)F)c3)C[C@H]2COCc2cccc(C3CCC(F)(F)CC3)c2C(=O)O)C1`, for which the IC50 on CDK2/Cyclin E1 is < 500 nM; in the assay on Kuramochi cells RB-WT it was > 10 µM; with Kuramochi cells RB-KO, > 10 µM.

(Values after patent US20260034123A1 (Cedilla Therapeutics, Inc., priority 2022, published 2026).)
